Results from paper PMC11445020.
No constants are given. Whether binding was seen depends on the method and setting. In cells and extracts the contact can be indirect. Some binding calls cover weakened binding; strength is not graded here. Tags and fused reporters may be left off the sequences shown.

Amino acid sequences for entries named in this document (tags omitted).
UniProt P63159: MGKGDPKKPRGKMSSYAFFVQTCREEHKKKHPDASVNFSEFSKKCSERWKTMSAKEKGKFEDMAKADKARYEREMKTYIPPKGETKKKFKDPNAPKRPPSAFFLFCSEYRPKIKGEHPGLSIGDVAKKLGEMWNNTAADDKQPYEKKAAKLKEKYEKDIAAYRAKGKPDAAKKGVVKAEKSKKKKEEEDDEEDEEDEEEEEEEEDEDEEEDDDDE

Molecular target: High mobility group box 1 (Hmgb1-3flag) (UniProt P63159)
Assay: co-IP; Flag antibody on protein A/G IP beads added to RIPA lysate (with protease inhibitor cocktail) of cells co-transfected with HA-Aqp1 and Hmgb1-3flag plasmids; 4°C overnight; precipitate analysed by Western blot

binding: binds
B1: Aquaporin 1 (HA-Aqp1) (protein, UniProt P29975 1-269)
chain: MASEIKKKLFWRAVVAEFLAMTLFVFISIGSALGFNYPLERNQTLVQDNVKVSLAFGLSIATLAQSVGHISGAHLNPAVTLGLLLSCQISILRAVMYIIAQCVGAIVASAILSGITSSLLENSLGRNDLARGVNSGQGLGIEIIGTLQLVLCVLATTDRRRRDLGGSAPLAIGLSVALGHLLAIDYTGCGINPARSFGSAVLTRNFSNHWIFWVGPFIGSALAVLIYDFILAPRSSDFTDRMKVWTSGQVEEYDLDADDINSRVEMKPK
